Measurements from publication PMC5897330.
No constants are given. Whether binding was seen depends on the method and setting. Some binding calls cover weakened binding; strength is not graded here.

Chains of the proteins cited; added tags and fusions are not shown.
UniProt P04792: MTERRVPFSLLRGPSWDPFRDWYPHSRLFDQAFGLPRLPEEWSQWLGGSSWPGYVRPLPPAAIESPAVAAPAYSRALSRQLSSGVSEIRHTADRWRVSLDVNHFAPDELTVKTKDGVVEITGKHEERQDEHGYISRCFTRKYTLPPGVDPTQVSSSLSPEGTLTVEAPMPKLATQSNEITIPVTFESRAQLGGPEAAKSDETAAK

Biological target: Recombinant HSP27 (heat shock protein 27), biotinylated (UniProt P04792)
Assay: BLI; Octet Red; biotinylated HSP27 immobilised at 10 ug/ml on streptavidin biosensors; analytes at 125 nM in PBS; association 600 s, dissociation 600 s; 26 °C; both purified

B1: Crystallin alpha B (protein, UniProt P02511 1-175)
chain: MDIAIHHPWIRRPFFPFHSPSRLFDQFFGEHLLESDLFPTSTSLSPFYLRPPSFLRAPSWFDTGLSEMRLEKDRFSVNLDVKHFSPEELKVKVLGDVIEVHGKHEERQDEHGFISREFHRKYRIPADVDPLTITSSLSSDGVLTVNGPRKQVSGPERTIPITREEKPAVTAAPKK
In the case of B1, the binding is reported as “binds”.
